Values from PubChem BioAssay AID504808 (Drosophila RNAi Screening Center, 2011)
Aim: 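Genes whose loss lifts activity of an E2F-responsive reporter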 (primary screen). Cells: Drosophila S2 cells. Reagent: long dsRNA against Drosophila genes. Detection: 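Dual luciferase plate measurements; E2F-specific signal taken as firefly over Renilla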. Scale: E2F firefly: higher = more E2F reporter activity; Renilla normaliser: higher = more normaliser reporter signal. Active means: 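Called active if the normalised E2F reporter went up by over 50%; the cutoff is arbitrary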.
In all, the deposit lists about 21,000 reagents; shown is an unselected part of those that have a named target and a result. Over the whole deposit, 18 (0.084%) are marked active. 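Raw counts without plate normalisation, one of two replicates; the ratio scores behind the calls were not deposited.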 Unmarked entries are inactive. The numbers tell different reagents against one gene apart. Names joined by + are all predicted targets of the reagent. Not stated in the record: the amount of reagent, the time to read-out.

gene | reagent | E2F firefly, rep 1 | Renilla normaliser, rep 1
Mocs1 (GeneID 39238) | 1 | 87270 | 4392
Paip2 (GeneID 41591) | 1 | 71223 | 3200
CG11069 (GeneID 42976) | 1 | 66584 | 3558
mtTFB2 (GeneID 41228) | 1 | 1.29e5 | 5891
Mcm7 (GeneID 39014) | 1 | 1.13e5 (active) | 171
CG17068 (GeneID 33024) | 1 | 1.57e5 | 5608
Acat2 (GeneID 38147) | 1 | 1.01e5 | 3978
l(2)k10201 (GeneID 48373) | 1 | 1.48e5 | 5579
l(2)k10201 (GeneID 48373) | 2 | 1.63e5 | 5836
Zcchc7 (GeneID 39883) | 1 | 67894 | 3404
CG5815 (GeneID 43266) | 1 | 1.13e5 | 5963
Cpr47Ea (GeneID 36188) | 1 | 94049 | 4077
mms4 (GeneID 36136) | 1 | 1.39e5 | 5006
CG33992 (retired record) + CG43755 | 1 | 1.34e5 | 5224
Sh3beta (GeneID 38820) | 1 | 77704 | 3783
tilB (GeneID 33130) | 1 | 1.47e5 | 7218
RSG7 (GeneID 32674) | 1 | 1.67e5 | 6469
eIF2D (GeneID 64874) | 1 | 82293 | 2760
mRpL36 (GeneID 59151) | 1 | 1.08e5 | 3914
CG33981 + fab1 | 1 | 70510 | 3640
CG12769 (GeneID 35770) | 1 | 3426 | 223
Ebp (GeneID 38009) | 1 | 92100 | 3045
TkR86C (GeneID 41286) | 1 | 1.38e5 | 6771
CG13795 (GeneID 34049) | 1 | 1.45e5 | 4863
CG34199 (GeneID 5740128) | 1 | 1.71e5 | 7260
CG8539 (GeneID 38842) | 1 | 71198 | 3396
CG15912 (GeneID 31385) | 1 | 51247 | 3927
TBC1D16 (GeneID 34431) | 1 | 1.58e5 | 5009
Hml (GeneID 39529) | 1 | 1.25e5 | 6223
Zip48C (GeneID 36273) | 1 | 126 | 27
CheA75a (GeneID 40011) | 1 | 63446 | 3086
CG8032 (GeneID 41026) | 1 | 1.46e5 | 7268
Cbp80 (GeneID 44409) | 1 | 8342 | 792
CG14537 (GeneID 34072) | 1 | 1.43e5 | 4995
Pbp45 (GeneID 41920) | 1 | 1.19e5 | 6754
GNBP1 (GeneID 40034) | 1 | 1.68e5 | 9002
Ssdp (GeneID 42177) | 1 | 1.50e5 | 5956
CG15256 (GeneID 34911) | 1 | 1.07e5 | 4432
CG5274 (GeneID 40257) | 1 | 77266 | 3412
neo (GeneID 43523) | 1 | 1787 | 852
GstD5 (GeneID 48338) | 1 | 1.54e5 | 7381
CG14174 (GeneID 39139) | 1 | 1.29e5 | 6818
CG34049 (GeneID 3885620) | 1 | 1.35e5 | 5324
Cand1 (GeneID 34403) | 1 | 71371 | 3104
Pgk (GeneID 33461) | 1 | 1.67e5 | 5783
Best3 (GeneID 39661) | 1 | 1.58e5 | 7816
TM9SF4 (GeneID 34778) | 1 | 93013 | 3633
TM9SF4 (GeneID 34778) | 2 | 96743 | 4416
Cpr31A (GeneID 2768918) | 1 | 1.44e5 | 5500

Limited to “E2F firefly, rep 1”, for 9 of the entries above:
CG5274 (GeneID 40257) = 77266
neo (GeneID 43523) = 1787
GstD5 (GeneID 48338) = 1.54e5
CG14174 (GeneID 39139) = 1.29e5
CG34049 (GeneID 3885620) = 1.35e5
Cand1 (GeneID 34403) = 71371
Pgk (GeneID 33461) = 1.67e5
Best3 (GeneID 39661) = 1.58e5
TM9SF4 (GeneID 34778) #1 = 93013

Next entries follow.
gene | reagent | E2F firefly, rep 1 | Renilla normaliser, rep 1
tplus3a + tplus3b | 1 | 1.17e5 | 4821
obst-B (GeneID 34336) | 1 | 76688 | 3387
Adgf-C (GeneID 41680) | 1 | 93462 | 6971
E(var)3-9 (GeneID 41073) | 1 | 1.42e5 | 6700
CG15814 (GeneID 32765) | 1 | 1.72e5 | 6558
CG14720 (GeneID 41415) | 1 | 1.51e5 | 6611
CG13369 (GeneID 31007) | 1 | 1.01e5 | 5840
CG14658 (GeneID 40603) | 1 | 1.08e5 | 5947
pippin (GeneID 37770) | 1 | 84216 | 3584
CG11374 (GeneID 33163) | 1 | 1.55e5 | 5641
Cnx14D (GeneID 32620) | 1 | 1.43e5 | 6070
mrn (GeneID 39688) | 1 | 66244 | 3286
CG10035 (GeneID 41511) | 1 | 1.55e5 | 6508
Naxd (GeneID 40085) | 1 | 77723 | 3746
Tfb4 (GeneID 33294) | 1 | 1.40e5 | 5343
ste24a (GeneID 36908) | 1 | 73288 | 2949
CG4988 (GeneID 34586) | 1 | 1.51e5 | 5182
PIG-B (GeneID 38446) | 1 | 86330 | 3869
EMC6 (GeneID 42992) | 1 | 99853 | 6072
CG14568 (GeneID 40418) | 1 | 1.25e5 | 6125
MstProx + Mst84Da | 1 | 1.45e5 | 7030
Drip (GeneID 36236) | 1 | 94355 | 4811
temp (GeneID 31212) | 1 | 1900 | 944
ck (GeneID 34882) | 1 | 74396 | 3421
CG6749 (GeneID 39144) | 1 | 1.34e5 | 7449
Trs31 (GeneID 36641) | 1 | 163 | 38
Pgant8 (GeneID 39715) | 1 | 1.56e5 | 7843
CG9577 (GeneID 33016) | 1 | 1.45e5 | 6412
CG13029 (GeneID 39886) | 1 | 1.58e5 | 7269
TBPH (GeneID 37781) | 1 | 85946 | 3990
PsGEF (GeneID 31224) | 1 | 1.06e5 | 5771
GstD7 (GeneID 48340) | 1 | 1.38e5 | 6101
Nacalpha (GeneID 36409) | 1 | 2421 | 183
IFT46 (GeneID 35114) | 1 | 89844 | 3938
CG32511 (retired record) (GeneID 318063) | 1 | 56221 | 3728
